Measurements reported in the supplement of paper PMC10849652.
Some of the results follow.

Chains of the proteins cited; added tags and fusions are not shown. Lines headed by an entry give the natural chain unless they say otherwise; changes in a name come on top.
UniProt Q9NY26: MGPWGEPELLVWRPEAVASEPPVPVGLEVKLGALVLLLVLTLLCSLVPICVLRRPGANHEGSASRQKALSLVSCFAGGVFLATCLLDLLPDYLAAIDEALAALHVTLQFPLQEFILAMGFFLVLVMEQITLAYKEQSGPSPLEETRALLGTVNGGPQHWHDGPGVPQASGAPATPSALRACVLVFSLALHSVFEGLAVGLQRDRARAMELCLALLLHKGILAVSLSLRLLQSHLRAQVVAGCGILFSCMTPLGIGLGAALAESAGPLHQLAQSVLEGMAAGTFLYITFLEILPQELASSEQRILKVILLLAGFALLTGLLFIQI
UniProt Q3KQZ1: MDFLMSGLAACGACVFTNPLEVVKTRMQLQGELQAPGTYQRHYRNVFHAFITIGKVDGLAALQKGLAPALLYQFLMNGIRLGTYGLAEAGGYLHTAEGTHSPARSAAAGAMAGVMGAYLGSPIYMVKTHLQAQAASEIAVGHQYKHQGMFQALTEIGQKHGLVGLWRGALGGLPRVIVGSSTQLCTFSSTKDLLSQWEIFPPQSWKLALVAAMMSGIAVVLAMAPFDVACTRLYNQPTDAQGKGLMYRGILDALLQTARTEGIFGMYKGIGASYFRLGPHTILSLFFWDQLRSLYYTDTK
UniProt P43003, whole entry, looked up: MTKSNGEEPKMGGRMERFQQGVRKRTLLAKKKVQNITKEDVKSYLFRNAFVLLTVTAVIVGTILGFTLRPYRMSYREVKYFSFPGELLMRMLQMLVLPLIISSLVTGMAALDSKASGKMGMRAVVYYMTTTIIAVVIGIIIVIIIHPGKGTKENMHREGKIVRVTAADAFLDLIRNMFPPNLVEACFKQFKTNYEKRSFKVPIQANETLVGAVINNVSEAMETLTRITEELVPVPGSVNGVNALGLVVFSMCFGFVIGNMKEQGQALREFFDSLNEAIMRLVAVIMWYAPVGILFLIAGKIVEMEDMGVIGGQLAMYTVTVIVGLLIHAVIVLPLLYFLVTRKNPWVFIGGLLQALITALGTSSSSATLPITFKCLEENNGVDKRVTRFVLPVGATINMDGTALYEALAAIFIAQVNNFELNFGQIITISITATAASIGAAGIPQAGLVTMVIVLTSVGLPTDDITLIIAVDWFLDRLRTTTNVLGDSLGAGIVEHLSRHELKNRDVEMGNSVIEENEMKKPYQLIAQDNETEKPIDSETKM
UniProt O95258: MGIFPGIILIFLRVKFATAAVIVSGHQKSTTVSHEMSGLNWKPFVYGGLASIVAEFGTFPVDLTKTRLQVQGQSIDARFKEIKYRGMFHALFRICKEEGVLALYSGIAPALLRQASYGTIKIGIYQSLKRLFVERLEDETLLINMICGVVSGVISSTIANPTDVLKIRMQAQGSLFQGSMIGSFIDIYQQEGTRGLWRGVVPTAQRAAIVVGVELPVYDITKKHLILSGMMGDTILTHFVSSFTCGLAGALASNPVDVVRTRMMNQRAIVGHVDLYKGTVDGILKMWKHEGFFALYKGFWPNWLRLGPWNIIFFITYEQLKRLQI
UniProt O76082: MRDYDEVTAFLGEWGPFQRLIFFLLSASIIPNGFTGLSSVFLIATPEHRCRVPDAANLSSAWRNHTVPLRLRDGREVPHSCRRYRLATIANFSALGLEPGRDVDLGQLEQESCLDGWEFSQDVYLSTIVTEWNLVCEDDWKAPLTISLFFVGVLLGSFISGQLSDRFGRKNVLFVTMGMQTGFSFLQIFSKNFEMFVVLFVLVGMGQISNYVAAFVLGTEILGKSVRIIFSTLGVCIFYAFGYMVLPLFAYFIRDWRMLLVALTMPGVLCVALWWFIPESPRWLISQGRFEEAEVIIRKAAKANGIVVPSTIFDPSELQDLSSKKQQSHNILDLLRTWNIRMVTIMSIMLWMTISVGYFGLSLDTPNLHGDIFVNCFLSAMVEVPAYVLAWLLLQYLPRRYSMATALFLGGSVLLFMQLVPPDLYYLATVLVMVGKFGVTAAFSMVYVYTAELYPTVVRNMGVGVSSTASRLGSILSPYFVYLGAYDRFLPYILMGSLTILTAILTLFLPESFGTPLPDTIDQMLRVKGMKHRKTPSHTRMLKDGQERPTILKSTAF
UniProt Q96NT5: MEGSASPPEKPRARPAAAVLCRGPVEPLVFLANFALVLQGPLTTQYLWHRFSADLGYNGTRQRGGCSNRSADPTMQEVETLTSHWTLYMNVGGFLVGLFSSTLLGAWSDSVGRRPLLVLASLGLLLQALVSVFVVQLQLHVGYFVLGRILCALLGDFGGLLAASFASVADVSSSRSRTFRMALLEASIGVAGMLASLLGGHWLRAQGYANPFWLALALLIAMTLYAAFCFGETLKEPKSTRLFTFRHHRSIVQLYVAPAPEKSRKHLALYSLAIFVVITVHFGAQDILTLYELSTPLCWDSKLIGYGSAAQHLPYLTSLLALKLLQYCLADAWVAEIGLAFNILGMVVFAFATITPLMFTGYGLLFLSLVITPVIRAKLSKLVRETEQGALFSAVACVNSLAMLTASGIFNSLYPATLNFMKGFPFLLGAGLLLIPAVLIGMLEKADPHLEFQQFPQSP
UniProt Q9HAB3: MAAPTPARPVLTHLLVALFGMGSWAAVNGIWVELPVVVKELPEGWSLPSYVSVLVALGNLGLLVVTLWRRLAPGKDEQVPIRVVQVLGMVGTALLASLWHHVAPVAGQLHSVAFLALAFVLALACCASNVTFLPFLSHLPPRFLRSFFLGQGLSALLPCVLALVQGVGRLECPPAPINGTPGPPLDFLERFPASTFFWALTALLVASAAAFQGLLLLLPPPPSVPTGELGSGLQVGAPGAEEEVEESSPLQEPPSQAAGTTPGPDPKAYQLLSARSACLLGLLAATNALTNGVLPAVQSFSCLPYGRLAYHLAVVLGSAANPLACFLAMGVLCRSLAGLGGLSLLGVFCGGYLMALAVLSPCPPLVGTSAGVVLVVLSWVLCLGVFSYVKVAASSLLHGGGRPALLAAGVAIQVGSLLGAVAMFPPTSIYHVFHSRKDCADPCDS
UniProt P50443: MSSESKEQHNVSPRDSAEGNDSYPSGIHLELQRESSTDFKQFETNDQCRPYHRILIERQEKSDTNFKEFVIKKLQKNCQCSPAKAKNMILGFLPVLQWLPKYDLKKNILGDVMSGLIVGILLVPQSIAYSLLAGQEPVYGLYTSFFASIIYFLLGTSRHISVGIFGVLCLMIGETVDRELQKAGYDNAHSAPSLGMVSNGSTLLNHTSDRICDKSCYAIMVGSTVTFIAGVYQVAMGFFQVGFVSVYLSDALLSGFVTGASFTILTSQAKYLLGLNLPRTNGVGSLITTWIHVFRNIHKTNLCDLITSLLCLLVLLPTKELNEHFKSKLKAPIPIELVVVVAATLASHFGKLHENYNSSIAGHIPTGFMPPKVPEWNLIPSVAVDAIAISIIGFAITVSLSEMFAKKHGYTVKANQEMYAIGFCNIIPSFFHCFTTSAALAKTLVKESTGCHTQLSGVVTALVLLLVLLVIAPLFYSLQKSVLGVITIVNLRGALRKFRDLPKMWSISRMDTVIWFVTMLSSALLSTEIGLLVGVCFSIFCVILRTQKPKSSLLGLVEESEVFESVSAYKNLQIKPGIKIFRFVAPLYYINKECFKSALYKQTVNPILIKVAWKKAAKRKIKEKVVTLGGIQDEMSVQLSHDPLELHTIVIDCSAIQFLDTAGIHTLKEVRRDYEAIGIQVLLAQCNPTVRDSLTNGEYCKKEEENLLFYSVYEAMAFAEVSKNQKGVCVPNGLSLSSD
UniProt Q8WV83: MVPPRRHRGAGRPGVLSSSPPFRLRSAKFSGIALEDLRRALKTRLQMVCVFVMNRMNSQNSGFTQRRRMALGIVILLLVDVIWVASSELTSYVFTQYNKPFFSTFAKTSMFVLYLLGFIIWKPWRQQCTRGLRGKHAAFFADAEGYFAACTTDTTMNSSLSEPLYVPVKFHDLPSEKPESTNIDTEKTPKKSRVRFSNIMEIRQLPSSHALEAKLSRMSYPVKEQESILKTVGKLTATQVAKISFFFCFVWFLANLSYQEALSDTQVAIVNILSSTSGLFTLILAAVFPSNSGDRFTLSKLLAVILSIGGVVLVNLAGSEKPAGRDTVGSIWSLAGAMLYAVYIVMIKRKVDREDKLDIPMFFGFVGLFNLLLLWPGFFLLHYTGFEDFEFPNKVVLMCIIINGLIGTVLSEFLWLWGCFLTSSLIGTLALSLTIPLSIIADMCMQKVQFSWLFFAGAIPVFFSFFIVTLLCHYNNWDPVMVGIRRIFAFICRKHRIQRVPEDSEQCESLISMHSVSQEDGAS
UniProt O15431: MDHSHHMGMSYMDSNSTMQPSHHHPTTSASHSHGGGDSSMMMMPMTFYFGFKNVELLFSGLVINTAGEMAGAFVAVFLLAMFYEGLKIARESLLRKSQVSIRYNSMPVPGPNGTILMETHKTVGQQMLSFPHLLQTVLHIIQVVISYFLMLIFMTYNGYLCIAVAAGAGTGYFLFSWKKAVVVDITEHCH
UniProt Q8N697: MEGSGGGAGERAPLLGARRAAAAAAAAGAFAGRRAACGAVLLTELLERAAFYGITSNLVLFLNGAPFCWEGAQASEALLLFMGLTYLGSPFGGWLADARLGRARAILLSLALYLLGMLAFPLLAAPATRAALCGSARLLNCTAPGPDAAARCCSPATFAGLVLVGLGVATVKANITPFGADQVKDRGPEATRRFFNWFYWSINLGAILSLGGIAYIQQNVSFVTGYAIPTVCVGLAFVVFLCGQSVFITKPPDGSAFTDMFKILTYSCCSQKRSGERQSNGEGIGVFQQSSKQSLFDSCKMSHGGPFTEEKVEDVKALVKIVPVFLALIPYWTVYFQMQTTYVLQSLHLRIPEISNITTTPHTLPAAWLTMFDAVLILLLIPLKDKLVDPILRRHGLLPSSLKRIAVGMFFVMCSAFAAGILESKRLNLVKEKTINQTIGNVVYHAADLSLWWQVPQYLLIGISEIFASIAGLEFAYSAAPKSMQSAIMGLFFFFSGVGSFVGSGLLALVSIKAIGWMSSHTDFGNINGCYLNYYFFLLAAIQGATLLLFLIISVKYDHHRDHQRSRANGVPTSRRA
UniProt Q8N8R3: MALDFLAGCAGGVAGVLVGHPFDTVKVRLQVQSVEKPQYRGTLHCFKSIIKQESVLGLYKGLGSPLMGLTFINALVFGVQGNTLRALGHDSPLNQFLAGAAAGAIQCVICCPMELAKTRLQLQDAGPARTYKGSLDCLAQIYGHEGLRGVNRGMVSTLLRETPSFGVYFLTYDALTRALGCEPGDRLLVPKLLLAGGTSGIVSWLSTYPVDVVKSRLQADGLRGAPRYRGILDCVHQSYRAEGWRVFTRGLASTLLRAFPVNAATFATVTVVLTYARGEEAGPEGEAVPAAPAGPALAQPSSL
UniProt F5GZS6: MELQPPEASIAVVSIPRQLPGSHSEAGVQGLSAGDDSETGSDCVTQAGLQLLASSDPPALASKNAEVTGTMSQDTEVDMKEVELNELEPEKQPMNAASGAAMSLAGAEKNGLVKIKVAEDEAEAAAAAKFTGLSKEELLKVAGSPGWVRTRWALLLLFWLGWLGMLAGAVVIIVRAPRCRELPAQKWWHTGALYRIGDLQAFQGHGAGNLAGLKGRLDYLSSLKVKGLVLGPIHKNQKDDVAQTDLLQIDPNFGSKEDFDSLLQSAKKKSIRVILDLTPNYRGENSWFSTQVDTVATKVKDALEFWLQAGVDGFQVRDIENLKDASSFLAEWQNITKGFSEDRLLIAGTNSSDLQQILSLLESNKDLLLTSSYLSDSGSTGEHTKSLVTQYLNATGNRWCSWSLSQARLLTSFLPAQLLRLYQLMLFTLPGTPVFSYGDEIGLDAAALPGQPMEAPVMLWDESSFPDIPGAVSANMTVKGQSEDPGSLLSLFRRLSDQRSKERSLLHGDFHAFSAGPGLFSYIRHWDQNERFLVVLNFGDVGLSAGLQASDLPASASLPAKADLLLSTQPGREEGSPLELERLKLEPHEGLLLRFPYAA
UniProt Q6ZP29: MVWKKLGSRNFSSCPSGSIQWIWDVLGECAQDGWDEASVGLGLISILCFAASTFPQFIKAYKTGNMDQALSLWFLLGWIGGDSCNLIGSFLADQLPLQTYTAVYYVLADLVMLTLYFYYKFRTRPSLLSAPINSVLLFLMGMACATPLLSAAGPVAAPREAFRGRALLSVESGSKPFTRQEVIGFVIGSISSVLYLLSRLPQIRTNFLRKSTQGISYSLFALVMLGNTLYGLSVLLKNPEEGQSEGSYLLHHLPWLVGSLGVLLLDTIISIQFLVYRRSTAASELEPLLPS
UniProt Q9BRV3: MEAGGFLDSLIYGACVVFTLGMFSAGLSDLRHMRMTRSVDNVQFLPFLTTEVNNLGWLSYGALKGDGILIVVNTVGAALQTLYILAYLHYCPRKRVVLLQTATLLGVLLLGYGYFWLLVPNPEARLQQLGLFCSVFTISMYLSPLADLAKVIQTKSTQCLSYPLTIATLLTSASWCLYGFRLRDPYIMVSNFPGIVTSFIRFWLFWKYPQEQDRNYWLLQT
UniProt Q6P1K1: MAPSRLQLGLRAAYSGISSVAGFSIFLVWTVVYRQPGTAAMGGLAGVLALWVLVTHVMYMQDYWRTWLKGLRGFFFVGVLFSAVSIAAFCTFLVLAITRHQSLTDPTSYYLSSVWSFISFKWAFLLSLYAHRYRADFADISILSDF

Compound: O=C(CCCCCCC(=O)Nc1ccccc1)NO [vorinostat]
Assay: log2 fold change, soluble protein after heating vs DMSO (PISA); higher = thermal stabilisation; K562 cells, 10 uM, 30 min; active = over 0.2 and 3.5 SD of the protein, either way, in both replicates (recomputed)
Method in brief: (§1)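 K562 cells at 2×10^6 cells/mL were exposed to 10 μM compound for 30 min, then aliquots were heated for 3 min across 48°C-58°C, pooled, and extracted in PBS containing 0.5% NP-40 at 4°C. The supernatant after 21,000xg for 90 min was taken as soluble protein and measured by TMTpro 16plex LC-MS/MS with channel sums equalised. Thermal stability is reported relative to control samples, with values from duplicates. Fold changes are given on a log2 scale.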

log2 fold change, inactive:
SLC39A1 (UniProt Q9NY26) 0.181, SLC25A35 (UniProt Q3KQZ1) 0.015, SLC1A3 (UniProt P43003) 0.143, SLC25A14 isoform 3 (UniProt O95258) 0.033, SLC22A5 isoform 3 (UniProt O76082) 0.035, SLC41A1 (UniProt Q8IVJ1) 0.134, SLC46A1 (UniProt Q96NT5) -0.005, SLC52A2 (UniProt Q9HAB3) 0.041, SLC26A2 (UniProt P50443) 0.03, SLC35F5 (UniProt Q8WV83) -0.101, SLC35E1 (UniProt Q96K37) 0.004, SLC22A23 (UniProt A1A5C7) 0.137, SLC31A1 (UniProt O15431) -0.252, SLC35C1 (UniProt Q96A29) -0.004, SLC3A2 (UniProt F5H867) -0.079

Compound: O=C(CCCCCCNC(=O)c1cnc(N(c2ccccc2)c2ccccc2Cl)nc1)NO [citarinostat]
Assay: as above
Method in brief: as §1

log2 fold change, inactive:
SLC15A4 (UniProt Q8N697) 0.026, SLC25A29 (UniProt Q8N8R3) -0.162, SLC3A2 (UniProt F5GZS6) -0.065, SLC25A35 (UniProt Q3KQZ1) 0.091, SLC1A3 (UniProt P43003) -0.096, SLC35C2 isoform 3 (UniProt Q9NQQ7) 0.046, SLC66A1 (UniProt Q6ZP29) -0.141, SLC25A14 isoform 3 (UniProt O95258) 0.203, SLC46A1 (UniProt Q96NT5) -0.061, SLC52A2 (UniProt Q9HAB3) 0.041, SLC35E1 (UniProt Q96K37) -0.264, SLC50A1 (UniProt Q9BRV3) 0.026, SLC22A23 (UniProt A1A5C7) 0.007, SLC31A1 (UniProt O15431) -0.029, SLC10A7 isoform 1 (UniProt Q0GE19) 0.015, SLC35C1 (UniProt Q96A29) -0.12, SLC48A1 (UniProt Q6P1K1) 0.149
